This is one part of the list.
Compound: C1=CC=C(C=C1)[C@H](COC2=CC3=C(C=C2)NC(=O)N3)NC(=O)C4=CC=CN(C4=O)CC5=CC(=C(C=C5)F)F
Test: log2 fold change, soluble protein after heating vs DMSO (PISA); higher = thermal stabilisation; K562 cells, 10 uM, 30 min; active = over 0.2 and 3.5 SD of the protein, either way, in both replicates (recomputed)
How it was run: (§1)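 For each measurement, 10 μM compound was applied for 30 min to K562 cells at 2×10^6 cells/mL. Aliquots were heated for 3 min across 48°C-58°C, pooled, and extracted in PBS with 0.5% NP-40 at 4°C; the supernatant after 21,000xg for 90 min was soluble protein. This was quantified by TMTpro 16plex LC-MS/MS with channel sums equalised, and thermal stability was reported relative to control samples from duplicates, on a log2 fold-change scale.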

The chains behind the UniProt entries cited, without tags or fusion partners. Where a name states a change or a piece, a line headed by the entry shows the natural chain unless it says otherwise.
UniProt P40692: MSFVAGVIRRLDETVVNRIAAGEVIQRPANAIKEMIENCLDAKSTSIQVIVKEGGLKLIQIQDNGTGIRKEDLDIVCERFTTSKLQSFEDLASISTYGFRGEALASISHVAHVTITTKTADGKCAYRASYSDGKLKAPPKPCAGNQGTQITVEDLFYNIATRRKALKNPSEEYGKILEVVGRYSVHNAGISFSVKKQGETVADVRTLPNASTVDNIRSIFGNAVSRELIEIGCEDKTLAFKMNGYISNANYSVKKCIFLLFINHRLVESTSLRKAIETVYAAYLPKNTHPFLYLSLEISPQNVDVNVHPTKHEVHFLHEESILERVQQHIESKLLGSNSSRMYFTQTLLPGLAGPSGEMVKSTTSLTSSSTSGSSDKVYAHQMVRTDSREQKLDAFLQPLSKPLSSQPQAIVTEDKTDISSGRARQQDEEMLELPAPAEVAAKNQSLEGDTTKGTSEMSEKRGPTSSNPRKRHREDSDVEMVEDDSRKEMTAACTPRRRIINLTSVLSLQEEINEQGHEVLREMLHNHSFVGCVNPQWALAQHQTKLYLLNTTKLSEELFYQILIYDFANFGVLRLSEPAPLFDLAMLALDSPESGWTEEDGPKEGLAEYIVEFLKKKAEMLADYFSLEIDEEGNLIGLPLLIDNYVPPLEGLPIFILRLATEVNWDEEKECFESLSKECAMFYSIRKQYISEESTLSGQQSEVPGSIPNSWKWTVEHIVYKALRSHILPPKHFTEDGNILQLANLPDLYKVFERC
UniProt Q9UH92: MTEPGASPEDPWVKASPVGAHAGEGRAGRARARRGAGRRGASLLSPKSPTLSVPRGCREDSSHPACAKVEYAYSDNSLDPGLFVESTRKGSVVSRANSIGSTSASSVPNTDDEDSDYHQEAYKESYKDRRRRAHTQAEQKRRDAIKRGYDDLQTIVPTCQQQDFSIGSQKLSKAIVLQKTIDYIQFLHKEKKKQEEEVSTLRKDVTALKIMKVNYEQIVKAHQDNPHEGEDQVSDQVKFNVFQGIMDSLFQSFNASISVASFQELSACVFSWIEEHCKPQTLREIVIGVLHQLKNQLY
UniProt Q86YT6, whole entry, looked up: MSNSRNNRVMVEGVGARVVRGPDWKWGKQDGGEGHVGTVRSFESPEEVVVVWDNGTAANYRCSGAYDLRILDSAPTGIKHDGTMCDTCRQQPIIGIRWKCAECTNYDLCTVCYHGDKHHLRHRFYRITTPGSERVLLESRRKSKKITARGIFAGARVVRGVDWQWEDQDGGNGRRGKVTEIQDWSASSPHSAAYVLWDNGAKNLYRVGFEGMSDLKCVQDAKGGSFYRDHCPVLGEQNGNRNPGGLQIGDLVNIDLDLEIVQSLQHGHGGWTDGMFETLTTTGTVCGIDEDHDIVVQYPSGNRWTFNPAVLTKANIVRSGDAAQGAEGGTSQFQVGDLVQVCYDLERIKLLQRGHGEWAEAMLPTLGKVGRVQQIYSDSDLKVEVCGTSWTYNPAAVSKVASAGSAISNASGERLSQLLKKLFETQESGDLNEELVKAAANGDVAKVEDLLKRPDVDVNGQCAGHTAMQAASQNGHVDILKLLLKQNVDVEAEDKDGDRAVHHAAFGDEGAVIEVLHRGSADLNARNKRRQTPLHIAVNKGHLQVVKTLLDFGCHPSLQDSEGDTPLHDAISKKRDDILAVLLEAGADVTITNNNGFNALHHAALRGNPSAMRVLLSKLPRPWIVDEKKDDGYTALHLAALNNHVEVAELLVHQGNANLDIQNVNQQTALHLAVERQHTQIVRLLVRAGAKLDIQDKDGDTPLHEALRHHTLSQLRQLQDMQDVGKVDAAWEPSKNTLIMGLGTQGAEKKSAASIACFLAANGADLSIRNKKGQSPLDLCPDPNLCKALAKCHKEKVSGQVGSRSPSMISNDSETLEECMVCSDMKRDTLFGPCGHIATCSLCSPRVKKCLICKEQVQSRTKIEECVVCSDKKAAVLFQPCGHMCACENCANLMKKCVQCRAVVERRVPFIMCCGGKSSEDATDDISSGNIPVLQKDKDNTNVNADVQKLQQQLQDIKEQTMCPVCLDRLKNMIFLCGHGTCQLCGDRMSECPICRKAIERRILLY
UniProt Q9Y5U8: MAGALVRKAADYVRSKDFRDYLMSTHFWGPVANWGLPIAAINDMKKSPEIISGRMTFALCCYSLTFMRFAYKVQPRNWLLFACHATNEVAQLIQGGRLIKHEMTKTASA
UniProt Q9NZW5: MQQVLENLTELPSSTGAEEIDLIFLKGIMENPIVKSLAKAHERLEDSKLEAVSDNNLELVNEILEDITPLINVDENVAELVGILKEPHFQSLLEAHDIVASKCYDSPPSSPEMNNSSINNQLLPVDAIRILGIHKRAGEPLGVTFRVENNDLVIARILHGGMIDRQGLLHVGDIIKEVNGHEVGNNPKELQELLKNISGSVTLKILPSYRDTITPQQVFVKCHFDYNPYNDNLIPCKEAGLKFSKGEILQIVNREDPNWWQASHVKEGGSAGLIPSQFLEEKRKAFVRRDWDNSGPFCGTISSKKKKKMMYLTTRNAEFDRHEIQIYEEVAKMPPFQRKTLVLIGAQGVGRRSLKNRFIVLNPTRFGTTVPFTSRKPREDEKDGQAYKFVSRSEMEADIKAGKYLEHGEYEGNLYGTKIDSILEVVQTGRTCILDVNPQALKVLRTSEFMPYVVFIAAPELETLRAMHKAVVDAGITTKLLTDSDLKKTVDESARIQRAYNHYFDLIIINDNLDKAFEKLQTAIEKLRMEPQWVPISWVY
UniProt O95563: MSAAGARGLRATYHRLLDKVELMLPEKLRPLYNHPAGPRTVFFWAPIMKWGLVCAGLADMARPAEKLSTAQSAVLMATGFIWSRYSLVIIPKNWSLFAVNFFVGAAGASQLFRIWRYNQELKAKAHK
UniProt Q9HC36: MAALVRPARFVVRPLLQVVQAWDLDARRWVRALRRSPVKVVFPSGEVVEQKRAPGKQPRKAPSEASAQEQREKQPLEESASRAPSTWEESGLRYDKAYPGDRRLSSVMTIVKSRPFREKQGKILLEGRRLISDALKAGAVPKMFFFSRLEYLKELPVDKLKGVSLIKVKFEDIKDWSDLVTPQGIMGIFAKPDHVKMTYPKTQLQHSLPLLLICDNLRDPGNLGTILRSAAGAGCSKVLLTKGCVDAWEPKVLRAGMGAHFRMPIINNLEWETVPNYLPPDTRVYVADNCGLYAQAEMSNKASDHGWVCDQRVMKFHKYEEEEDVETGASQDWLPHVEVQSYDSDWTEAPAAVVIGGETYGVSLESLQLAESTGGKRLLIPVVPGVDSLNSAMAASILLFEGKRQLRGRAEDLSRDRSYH
UniProt Q29983, whole entry, looked up: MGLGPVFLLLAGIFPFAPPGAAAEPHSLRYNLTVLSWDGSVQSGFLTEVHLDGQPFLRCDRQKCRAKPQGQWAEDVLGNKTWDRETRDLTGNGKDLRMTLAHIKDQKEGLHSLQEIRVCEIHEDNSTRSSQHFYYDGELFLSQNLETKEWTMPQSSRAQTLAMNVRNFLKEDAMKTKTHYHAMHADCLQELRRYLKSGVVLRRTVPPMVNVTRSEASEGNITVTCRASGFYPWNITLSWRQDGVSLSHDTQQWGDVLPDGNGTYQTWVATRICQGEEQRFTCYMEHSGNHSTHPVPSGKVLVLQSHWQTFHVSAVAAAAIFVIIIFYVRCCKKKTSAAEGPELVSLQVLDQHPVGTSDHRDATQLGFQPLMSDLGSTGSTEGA
UniProt Q8N4C8: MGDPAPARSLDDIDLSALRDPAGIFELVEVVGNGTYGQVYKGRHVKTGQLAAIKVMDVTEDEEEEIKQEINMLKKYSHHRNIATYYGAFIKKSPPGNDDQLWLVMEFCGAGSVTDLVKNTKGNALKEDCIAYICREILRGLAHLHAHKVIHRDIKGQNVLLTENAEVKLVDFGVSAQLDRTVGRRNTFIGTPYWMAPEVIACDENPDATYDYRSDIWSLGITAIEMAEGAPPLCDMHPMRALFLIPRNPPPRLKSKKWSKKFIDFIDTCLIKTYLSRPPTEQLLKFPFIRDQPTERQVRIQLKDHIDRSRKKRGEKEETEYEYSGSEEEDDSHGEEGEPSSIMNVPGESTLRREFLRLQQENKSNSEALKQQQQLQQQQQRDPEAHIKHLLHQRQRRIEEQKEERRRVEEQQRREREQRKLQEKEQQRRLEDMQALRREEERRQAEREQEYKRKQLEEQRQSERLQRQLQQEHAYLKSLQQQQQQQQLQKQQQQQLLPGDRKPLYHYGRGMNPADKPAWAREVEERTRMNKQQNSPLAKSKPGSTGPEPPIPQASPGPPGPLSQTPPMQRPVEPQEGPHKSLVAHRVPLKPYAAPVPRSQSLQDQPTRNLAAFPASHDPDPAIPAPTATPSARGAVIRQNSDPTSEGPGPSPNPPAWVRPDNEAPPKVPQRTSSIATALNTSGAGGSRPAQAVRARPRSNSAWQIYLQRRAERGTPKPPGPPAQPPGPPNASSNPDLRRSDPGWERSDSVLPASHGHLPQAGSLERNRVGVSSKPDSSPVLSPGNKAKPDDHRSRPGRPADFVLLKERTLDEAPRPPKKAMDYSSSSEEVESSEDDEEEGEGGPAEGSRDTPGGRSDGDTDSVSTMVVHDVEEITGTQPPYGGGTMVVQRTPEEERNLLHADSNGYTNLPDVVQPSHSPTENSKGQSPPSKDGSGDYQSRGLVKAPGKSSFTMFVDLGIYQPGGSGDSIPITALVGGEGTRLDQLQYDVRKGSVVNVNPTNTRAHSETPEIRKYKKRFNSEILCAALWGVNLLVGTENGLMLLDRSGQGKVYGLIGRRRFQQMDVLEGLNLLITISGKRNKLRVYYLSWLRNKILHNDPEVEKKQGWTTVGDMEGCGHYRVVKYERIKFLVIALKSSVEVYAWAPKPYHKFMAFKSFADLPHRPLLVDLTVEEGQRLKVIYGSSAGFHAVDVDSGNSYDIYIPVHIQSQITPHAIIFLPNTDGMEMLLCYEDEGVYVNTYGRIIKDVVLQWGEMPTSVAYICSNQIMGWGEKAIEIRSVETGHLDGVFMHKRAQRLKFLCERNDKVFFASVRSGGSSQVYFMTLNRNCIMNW
UniProt Q5TGZ0: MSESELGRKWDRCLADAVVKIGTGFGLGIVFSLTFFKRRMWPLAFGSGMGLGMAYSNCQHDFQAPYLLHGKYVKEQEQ
UniProt Q9NPA3, whole entry, looked up: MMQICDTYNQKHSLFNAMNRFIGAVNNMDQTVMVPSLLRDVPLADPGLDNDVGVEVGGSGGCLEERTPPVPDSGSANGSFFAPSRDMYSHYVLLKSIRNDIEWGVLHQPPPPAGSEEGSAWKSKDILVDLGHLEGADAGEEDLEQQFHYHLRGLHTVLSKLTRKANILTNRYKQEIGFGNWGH
UniProt Q9H8M7: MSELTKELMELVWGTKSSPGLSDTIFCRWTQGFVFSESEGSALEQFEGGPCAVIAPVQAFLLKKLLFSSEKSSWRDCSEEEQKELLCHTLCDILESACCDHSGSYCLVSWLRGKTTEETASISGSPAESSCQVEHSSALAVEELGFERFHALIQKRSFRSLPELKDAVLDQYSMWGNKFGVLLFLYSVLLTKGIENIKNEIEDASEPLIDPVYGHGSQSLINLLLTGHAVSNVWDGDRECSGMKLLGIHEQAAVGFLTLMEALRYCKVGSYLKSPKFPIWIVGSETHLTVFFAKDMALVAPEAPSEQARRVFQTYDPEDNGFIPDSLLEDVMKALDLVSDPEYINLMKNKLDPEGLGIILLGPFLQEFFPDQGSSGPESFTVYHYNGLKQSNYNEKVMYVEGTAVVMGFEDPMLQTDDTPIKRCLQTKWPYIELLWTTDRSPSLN
UniProt Q8IVH4: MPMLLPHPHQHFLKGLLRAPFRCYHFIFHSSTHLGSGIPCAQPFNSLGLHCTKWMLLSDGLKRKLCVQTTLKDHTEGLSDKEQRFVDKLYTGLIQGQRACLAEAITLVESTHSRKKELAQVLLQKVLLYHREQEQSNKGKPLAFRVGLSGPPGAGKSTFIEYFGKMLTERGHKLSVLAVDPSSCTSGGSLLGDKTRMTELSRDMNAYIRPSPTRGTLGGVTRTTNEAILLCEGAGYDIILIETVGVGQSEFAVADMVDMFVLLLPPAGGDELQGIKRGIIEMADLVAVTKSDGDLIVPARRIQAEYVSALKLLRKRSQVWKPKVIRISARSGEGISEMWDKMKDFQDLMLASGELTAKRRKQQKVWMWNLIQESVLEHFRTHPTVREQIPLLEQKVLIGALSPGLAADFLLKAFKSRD
UniProt Q8NB16: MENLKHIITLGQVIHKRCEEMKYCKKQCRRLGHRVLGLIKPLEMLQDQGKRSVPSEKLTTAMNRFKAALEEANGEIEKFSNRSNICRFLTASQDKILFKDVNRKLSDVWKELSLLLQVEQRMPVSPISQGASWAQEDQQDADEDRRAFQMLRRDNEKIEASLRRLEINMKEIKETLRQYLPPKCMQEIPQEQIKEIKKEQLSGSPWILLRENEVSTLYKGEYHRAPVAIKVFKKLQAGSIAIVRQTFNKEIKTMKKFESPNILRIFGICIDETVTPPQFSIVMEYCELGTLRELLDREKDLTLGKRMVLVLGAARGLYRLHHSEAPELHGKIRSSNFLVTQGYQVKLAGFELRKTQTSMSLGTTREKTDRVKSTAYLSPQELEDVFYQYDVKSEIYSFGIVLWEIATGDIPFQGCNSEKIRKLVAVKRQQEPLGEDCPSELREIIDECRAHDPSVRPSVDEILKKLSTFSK

Target | log2 fold change
MLH1 (UniProt P40692) | inactive: 0.192
MLX (UniProt Q9UH92) | inactive: -0.055
MIB1 (UniProt Q86YT6) | inactive: -0.029
MPC1 (UniProt Q9Y5U8) | inactive: 0.272
MKRN2 (UniProt Q9H000) | inactive: 0.029
MPP6 (UniProt Q9NZW5) | inactive: -0.041
MME (UniProt P08473) | inactive: -0.051
MPV17 (UniProt P39210) | inactive: 0.01
MPC2 (UniProt O95563) | inactive: -0.022
MON1A (UniProt Q86VX9) | inactive: 0.1
MRPL43 isoform 4 (UniProt Q8N983) | inactive: 0.059
MRM3 (UniProt Q9HC36) | inactive: 0.145
MICA (UniProt Q29983) | inactive: -0.008
MINK1 (UniProt Q8N4C8) | inactive: -0.036
MRPL16 (UniProt Q9NX20) | inactive: -0.047
MICOS10 (UniProt Q5TGZ0) | inactive: -0.085
MRPL20 (UniProt Q9BYC9) | inactive: 0.026
MICU2 (UniProt Q8IYU8) | inactive: 0.013
MRPL18 (UniProt Q9H0U6) | inactive: 0.06
MID1IP1 (UniProt Q9NPA3) | inactive: 0.02
MOB2 isoform 3 (UniProt Q70IA6) | inactive: -0.015
MINDY3 (UniProt Q9H8M7) | inactive: -0.027
MRPL47 (UniProt Q9HD33) | inactive: 0.042

Compound: CC1=C(SC2=C1C(=N[C@H](C3=NN=C(N32)C)CC(=O)N)C4=CC=C(C=C4)Cl)C
Test: as above
How it was run: as §1

Target | log2 fold change
MLH1 (UniProt P40692) | inactive: 0.007
MLX (UniProt Q9UH92) | inactive: 0.032
MIB1 (UniProt Q86YT6) | inactive: -0.001
MPC1 (UniProt Q9Y5U8) | inactive: 0.051
MIER2 (UniProt Q8N344) | inactive: 0.006
MKRN2 (UniProt Q9H000) | inactive: 0.046
MPP6 (UniProt Q9NZW5) | inactive: 0.07
MPV17 (UniProt P39210) | inactive: 0.021
MINDY2 (UniProt Q8NBR6) | inactive: 0.12
MPC2 (UniProt O95563) | inactive: 0.046
MICAL1 isoform 4 (UniProt Q8TDZ2) | inactive: 0.075
MRPL43 isoform 4 (UniProt Q8N983) | inactive: -0.072
MRM3 (UniProt Q9HC36) | inactive: -0.223
MMAA (UniProt Q8IVH4) | inactive: 0.105
MINK1 (UniProt Q8N4C8) | inactive: 0.024
MRPL16 (UniProt Q9NX20) | inactive: -0.328
MICALL1 (UniProt Q8N3F8) | inactive: 0.087
MOCS2 (UniProt O96033) | inactive: 0.475
MRM2 (UniProt Q9UI43) | inactive: 0.021
MPHOSPH8 isoform 2 (UniProt Q99549) | inactive: -0.064
MLKL (UniProt Q8NB16) | inactive: 0.049
MPZL1 isoform 3 (UniProt O95297) | inactive: 0.017
MRPL20 (UniProt Q9BYC9) | inactive: -0.119
MICU2 (UniProt Q8IYU8) | inactive: -0.037
MRPL18 (UniProt Q9H0U6) | inactive: 0.112
MOB2 isoform 3 (UniProt Q70IA6) | inactive: 0.129
MINDY3 (UniProt Q9H8M7) | inactive: 0.021
MIGA2 (UniProt Q7L4E1) | inactive: -0.173
MRPL47 (UniProt Q9HD33) | inactive: -0.108

Reference: the supplement of paper PMC10849652
